# According to the supplement of paper PMC8728848:
# This is one part of the list.
# B1: DCIR1 (Mus musculus), Q9QZ15 (protein)
# chain: MASEITYAEVKFKNESNSLHTYSESPAAPREKPIRDLRKPGSPSLLLTSLMLLLLLLAITFLVAFIIYFQKYSQLLEEKKAAKNIMHNELNCTKSVSPMEDKVWSCCPKDWRLFGSHCYLVPTVSSSASWNKSEENCSRMGAHLVVIQSQEEQDFITGILDTHAAYFIGLWDTGHRQWQWVDQTPYEESITFWHNGEPSSGNEKCATIIYRWKTGWGWNDISCSLKQKSVCQMKKINL
# Key:
# Experiment in all cases: glycan array binding signal (z-score within array); higher = stronger binding
# Details in all cases: glycan notation: IUPAC condensed, linker removed
# [1] = molecular target: GlcNAc(b1-3)Gal(b1-4)GlcNAc(b1-3)Gal(b1-4)GlcNAc(b1-3)Gal(b1-4)GlcNAc(b1-3)Gal(b1-4)GlcNAc(b1-2)[GlcNAc(b1-3)Gal(b1-4)GlcNAc(b1-3)Gal(b1-4)GlcNAc(b1-3)Gal(b1-4)GlcNAc(b1-3)Gal(b1-4)GlcNAc(b1-6)]Man(a1-6)[GlcNAc(b1-3)Gal(b1-4)GlcNAc(b1-3)Gal(b1-4)GlcNAc(b1-3)Gal(b1-4)GlcNAc(b1-3)Gal(b1-4)GlcNAc(b1-2)Man(a1-3)]Man(b1-4)GlcNAc(b1-4)[Fuc(a1-6)]GlcNAc
# Summary of the method: (§1)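 Arrays were curated from the Consortium for Functional Glycomics database, 3228 in total, and kept only where the protein sequence was available. Binding is expressed as a within-array Z-score. This score was averaged across arrays of the same protein sequence at different concentrations or buffers and across linkers, and negative values can be read as non-binding.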
# [2] = molecular target: GlcNAc(b1-3)Gal(b1-4)GlcNAc(b1-3)Gal(b1-4)GlcNAc(b1-3)GalNAc
# Summary of the method: as §1
# [3] = molecular target: GlcNAc(b1-3)Gal(b1-4)GlcNAc(b1-3)GalNAc
# Summary of the method: as §1
# [4] = molecular target: GlcNAc(b1-3)Gal(b1-4)GlcNAc(b1-3)[GlcNAc(b1-3)Gal(b1-4)GlcNAc(b1-3)]GalNAc
# Summary of the method: as §1
# [5] = molecular target: GlcNAc(b1-3)Gal(b1-4)GlcNAc(b1-6)[Gal(b1-3)]GalNAc
# Summary of the method: as §1
# [6] = molecular target: GlcNAc(b1-3)Gal(b1-4)GlcNAc(b1-6)[GlcNAc(b1-3)Gal(b1-3)]GalNAc
# Summary of the method: as §1
# [7] = molecular target: GlcNAc(b1-3)Gal(b1-4)GlcNAc(b1-6)[GlcNAc(b1-3)]Gal(b1-4)GlcNAc
# Summary of the method: as §1
# [8] = molecular target: GlcNAc(b1-3)GalNAc
# Summary of the method: as §1
# [9] = molecular target: GlcNAc(b1-3)Man
# Summary of the method: as §1
# [10] = molecular target: GlcNAc(b1-3)[GlcNAc(b1-4)][GlcNAc(b1-6)]GlcNAc
# Summary of the method: as §1
# [11] = molecular target: GlcNAc(b1-3)[GlcNAc(b1-6)]Gal(b1-4)GlcNAc
# Summary of the method: as §1
# [12] = molecular target: GlcNAc(b1-3)[GlcNAc(b1-6)]GalNAc
# Summary of the method: as §1
# [13] = molecular target: GlcNAc(b1-4)Gal(b1-4)GlcNAc
# Summary of the method: as §1
# [14] = molecular target: GlcNAc(b1-4)GlcNAc
# Summary of the method: as §1
# [15] = molecular target: GlcNAc(b1-4)GlcNAc(b1-4)GlcNAc
# Summary of the method: as §1
# [16] = molecular target: GlcNAc(b1-4)GlcNAc(b1-4)GlcNAc(b1-4)GlcNAc(b1-4)GlcNAc
# Summary of the method: as §1
# [17] = molecular target: GlcNAc(b1-4)GlcNAc(b1-4)GlcNAc(b1-4)GlcNAc(b1-4)GlcNAc(b1-4)GlcNAc
# Summary of the method: as §1
# [18] = molecular target: GlcNAc(b1-4)[GlcNAc(b1-6)]GalNAc
# Summary of the method: as §1
# [19] = molecular target: GlcNAc(b1-6)Gal(b1-4)GlcNAc
# Summary of the method: as §1
# [20] = molecular target: GlcNAc(b1-6)GalNAc
# Summary of the method: as §1
# [21] = molecular target: GlcNAc6S(b1-3)Gal(b1-4)GlcNAc
# Summary of the method: as §1
# [22] = molecular target: Kdn(a2-3)Gal(b1-3)GalNAc
# Summary of the method: as §1
# [23] = molecular target: Kdn(a2-3)Gal(b1-3)GlcNAc
# Summary of the method: as §1
# [24] = molecular target: Kdn(a2-3)Gal(b1-4)Glc
# Summary of the method: as §1
# [25] = molecular target: Kdn(a2-3)Gal(b1-4)GlcNAc
# Summary of the method: as §1
# [26] = molecular target: Kdn(a2-3)Gal(b1-4)[Fuc(a1-3)]GlcNAc
# Summary of the method: as §1
# [27] = molecular target: Kdn(a2-6)Gal(b1-4)GlcNAc
# Summary of the method: as §1
# [28] = molecular target: Man(a1-2)Man(a1-2)Man(a1-3)Man
# Summary of the method: as §1
# [29] = molecular target: Man(a1-2)Man(a1-2)Man(a1-6)[Man(a1-3)]Man
# Summary of the method: as §1
# [30] = molecular target: Man(a1-2)Man(a1-3)Man
# Summary of the method: as §1
# [31] = molecular target: Man(a1-2)Man(a1-3)[Man(a1-2)Man(a1-6)]Man
# Summary of the method: as §1
# [32] = molecular target: Man(a1-2)Man(a1-3)[Man(a1-2)Man(a1-6)]Man(a1-6)[Man(a1-2)Man(a1-2)Man(a1-3)]Man
# Summary of the method: as §1
# [33] = molecular target: Man(a1-2)Man(a1-3)[Man(a1-2)Man(a1-6)]Man(a1-6)[Man(a1-2)Man(a1-2)Man(a1-3)]Man(b1-4)GlcNAc(b1-4)GlcNAc
# Summary of the method: as §1
# [34] = molecular target: Man(a1-2)Man(a1-3)[Man(a1-6)]Man(a1-6)[Man(a1-2)Man(a1-3)]Man(b1-4)GlcNAc(b1-4)GlcNAc
# Summary of the method: as §1
# [35] = molecular target: Man(a1-2)Man(a1-6)[Man(a1-3)]Man(a1-6)[Man(a1-2)Man(a1-2)Man(a1-3)]Man
# Summary of the method: as §1
# [36] = molecular target: Man(a1-2)Man(a1-6)[Man(a1-3)]Man(a1-6)[Man(a1-2)Man(a1-2)Man(a1-3)]Man(b1-4)GlcNAc(b1-4)GlcNAc
# Summary of the method: as §1
# [37] = molecular target: Man(a1-3)[Man(a1-6)]Man
# Summary of the method: as §1
# [38] = molecular target: Man(a1-3)[Man(a1-6)]Man(a1-6)[Man(a1-2)Man(a1-3)]Man(b1-4)GlcNAc(b1-4)GlcNAc
# Summary of the method: as §1
# [39] = molecular target: Man(a1-3)[Man(a1-6)]Man(a1-6)[Man(a1-3)]Man
# Summary of the method: as §1
# [40] = molecular target: Man(a1-3)[Man(a1-6)]Man(a1-6)[Man(a1-3)]Man(b1-4)GlcNAc(b1-4)GlcNAc
# Summary of the method: as §1
# [41] = molecular target: Man(a1-3)[Man(a1-6)]Man(b1-4)GlcNAc(b1-4)GlcNAc
# Summary of the method: as §1
# [42] = molecular target: Man(a1-3)[Man(a1-6)]Man(b1-4)GlcNAc(b1-4)[Fuc(a1-6)]GlcNAc
# Summary of the method: as §1
# [43] = molecular target: Man(a1-6)Man
# Summary of the method: as §1
# [44] = molecular target: Man(b1-4)GlcNAc
# Summary of the method: as §1
# [45] = molecular target: MurNAc(b1-4)GlcNAc
# Summary of the method: as §1
binder,measurement,setting,value
B1,glycan array binding signal (z-score),[1],-0.786
same,glycan array binding signal (z-score),[2],-1.06
same,glycan array binding signal (z-score),[3],-0.614
same,glycan array binding signal (z-score),[4],-0.946
same,glycan array binding signal (z-score),[5],-1.06
same,glycan array binding signal (z-score),[6],-0.947
same,glycan array binding signal (z-score),[7],-1.02
same,glycan array binding signal (z-score),[8],-0.881
same,glycan array binding signal (z-score),[9],-0.299
same,glycan array binding signal (z-score),[10],-0.665
same,glycan array binding signal (z-score),[11],-0.314
same,glycan array binding signal (z-score),[12],-0.343
same,glycan array binding signal (z-score),[13],-0.421
same,glycan array binding signal (z-score),[14],-0.434
same,glycan array binding signal (z-score),[15],-0.259
same,glycan array binding signal (z-score),[16],-0.376
same,glycan array binding signal (z-score),[17],1.75
same,glycan array binding signal (z-score),[18],0.121
same,glycan array binding signal (z-score),[19],0.643
same,glycan array binding signal (z-score),[20],0.182
same,glycan array binding signal (z-score),[21],-0.546
same,glycan array binding signal (z-score),[22],-0.193
same,glycan array binding signal (z-score),[23],-0.781
same,glycan array binding signal (z-score),[24],-0.178
same,glycan array binding signal (z-score),[25],-0.687
same,glycan array binding signal (z-score),[26],2.92
same,glycan array binding signal (z-score),[27],-0.687
same,glycan array binding signal (z-score),[28],-0.962
same,glycan array binding signal (z-score),[29],4.44
same,glycan array binding signal (z-score),[30],-0.644
same,glycan array binding signal (z-score),[31],-0.875
same,glycan array binding signal (z-score),[32],-0.716
same,glycan array binding signal (z-score),[33],-0.197
same,glycan array binding signal (z-score),[34],-0.907
same,glycan array binding signal (z-score),[35],-1.02
same,glycan array binding signal (z-score),[36],1.5
same,glycan array binding signal (z-score),[37],-0.497
same,glycan array binding signal (z-score),[38],-0.363
same,glycan array binding signal (z-score),[39],0.267
same,glycan array binding signal (z-score),[40],-0.185
same,glycan array binding signal (z-score),[41],-0.644
same,glycan array binding signal (z-score),[42],-0.657
same,glycan array binding signal (z-score),[43],2.57
same,glycan array binding signal (z-score),[44],2.02
same,glycan array binding signal (z-score),[45],-0.939

# In another format: results already given
binder	measurement	setting	value
B1	glycan array binding signal (z-score)	[14]	-0.434
same	glycan array binding signal (z-score)	[15]	-0.259
